No constants are given. Whether binding was seen depends on the method and setting. Binding seen in cells or lysates may run through a third protein. These calls come from enrichment with a bait or labelling near it, and not all partners need be listed.
Legend:
[1] = target: EGFR–HaloTag (Flag–EGFR–HaloTag; full-length EGFR with an intracellular C-terminal HaloTag) (UniProt P00533); experiment: proximity labelling; ICD ecto-tag MultiMap: live A549 cells expressing EGFR–HaloTag, serum-starved, EY–HTL anchored and washed out; with versus without EGFR–HaloTag, and EGF for 5 min or 60 min versus no EGF; three biotin photoprobes at 100 μM, 2 min blue light at 4 °C; streptavidin enrichment and LC–MS/MS
[2] = target: Flag–EGFR (full-length EGFR with an extracellular N-terminal Flag tag) (UniProt P00533); experiment: proximity labelling; ECD ecto-tag MultiMap: live A549 cells expressing Flag–EGFR, serum-starved, anti-Flag–EY antibody bound at 4 °C; EGF for 5 min or 60 min versus no EGF; aryl-diazirine-biotin, aryl-azide-biotin or phenol-biotin at 100 μM, 2 min blue light at 4 °C; streptavidin enrichment and LC–MS/MS; enrichment normalised to EGFR
[3] = target: EGFR–HaloTag (Flag–EGFR–HaloTag; full-length EGFR with an intracellular C-terminal HaloTag) (UniProt P00533); experiment: proximity labelling; ICD ecto-tag MultiMap with EY–HTL on EGFR–HaloTag in A549 cells; biotin immunoprecipitate (streptavidin beads) read by western blot; EGF for 5, 10, 30 and 60 min

Chains of the proteins cited; added tags and fusions are not shown. Residues count along the entry.
UniProt P62330: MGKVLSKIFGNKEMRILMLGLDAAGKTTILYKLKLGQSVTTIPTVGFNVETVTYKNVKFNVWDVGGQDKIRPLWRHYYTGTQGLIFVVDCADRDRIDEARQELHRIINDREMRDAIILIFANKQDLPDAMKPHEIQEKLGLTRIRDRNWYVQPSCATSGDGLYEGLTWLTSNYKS
UniProt P16070, residues 21-742: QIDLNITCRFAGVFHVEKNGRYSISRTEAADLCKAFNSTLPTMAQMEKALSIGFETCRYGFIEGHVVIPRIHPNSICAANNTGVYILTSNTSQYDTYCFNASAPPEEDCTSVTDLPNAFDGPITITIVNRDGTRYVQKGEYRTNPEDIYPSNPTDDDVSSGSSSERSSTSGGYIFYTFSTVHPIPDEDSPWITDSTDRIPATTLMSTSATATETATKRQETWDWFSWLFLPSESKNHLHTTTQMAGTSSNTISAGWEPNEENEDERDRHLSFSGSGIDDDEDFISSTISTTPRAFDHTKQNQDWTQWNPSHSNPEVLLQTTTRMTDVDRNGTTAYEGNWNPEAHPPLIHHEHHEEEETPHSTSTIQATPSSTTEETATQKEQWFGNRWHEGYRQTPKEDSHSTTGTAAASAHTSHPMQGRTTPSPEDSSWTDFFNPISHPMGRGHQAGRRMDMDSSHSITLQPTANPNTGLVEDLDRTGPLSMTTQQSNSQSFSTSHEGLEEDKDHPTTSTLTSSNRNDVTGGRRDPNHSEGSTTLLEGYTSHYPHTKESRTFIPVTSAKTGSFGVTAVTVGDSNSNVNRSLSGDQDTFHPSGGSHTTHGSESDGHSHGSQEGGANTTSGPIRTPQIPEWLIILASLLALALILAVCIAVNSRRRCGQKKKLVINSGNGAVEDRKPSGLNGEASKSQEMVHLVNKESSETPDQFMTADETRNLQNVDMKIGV

binding [1]	binding [2]	binding [3]	Molecule
binds	binds	binds	ARF6, an ADP-ribosylation factor (from UniProt P62330 1-175)
binds	binds	binds	CD44 (from UniProt P16070 21-742)
	binds	binds	DNM1 (protein, UniProt Q05193 1-864) MGNRGMEDLIPLVNRLQDAFSAIGQNADLDLPQIAVVGGQSAGKSSVLENFVGRDFLPRGSGIVTRRPLVLQLVNATTEYAEFLHCKGKKFTDFEEVRLEIEAETDRVTGTNKGISPVPINLRVYSPHVLNLTLVDLPGMTKVPVGDQPPDIEFQIRDMLMQFVTKENCLILAVSPANSDLANSDALKVAKEVDPQGQRTIGVITKLDLMDEGTDARDVLENKLLPLRRGYIGVVNRSQKDIDGKKDITAALAAERKFFLSHPSYRHLADRMGTPYLQKVLNQQLTNHIRDTLPGLRNKLQSQLLSIEKEVEEYKNFRPDDPARKTKALLQMVQQFAVDFEKRIEGSGDQIDTYELSGGARINRIFHERFPFELVKMEFDEKELRREISYAIKNIHGIRTGLFTPDMAFETIVKKQVKKIREPCLKCVDMVISELISTVRQCTKKLQQYPRLREEMERIVTTHIREREGRTKEQVMLLIDIELAYMNTNHEDFIGFANAQQRSNQMNKKKTSGNQDEILVIRKGWLTINNIGIMKGGSKEYWFVLTAENLSWYKDDEEKEKKYMLSVDNLKLRDVEKGFMSSKHIFALFNTEQRNVYKDYRQLELACETQEEVDSWKASFLRAGVYPERVGDKEKASETEENGSDSFMHSMDPQLERQVETIRNLVDSYMAIVNKTVRDLMPKTIMHLMINNTKEFIFSELLANLYSCGDQNTLMEESAEQAQRRDEMLRMYHALKEALSIIGDINTTTVSTPMPPPVDDSWLQVQSVPAGRRSPTSSPTPQRRAPAVPPARPGSRGPAPGPPPAGSALGGAPPVPSRPGASPDPFGPPPQVPSRPNRAPPGVPSRSGQASPSRPESPRPPFDL

Source: publication PMC12858401
